# ± gives the standard deviation of the averaged measurements. The entries are a selection whose mix differs from that of the whole data set.
# Experiments:
# Experiment in all cases: NP40-soluble protein abundance relative to vehicle (solubility fold change) (ratio); higher = more soluble protein in presence of AMP-PNP
# [1] = molecular target: T1, B7WPL9 and related entries (UniProt Q6PFW1)
# T1 sequence (whole entry): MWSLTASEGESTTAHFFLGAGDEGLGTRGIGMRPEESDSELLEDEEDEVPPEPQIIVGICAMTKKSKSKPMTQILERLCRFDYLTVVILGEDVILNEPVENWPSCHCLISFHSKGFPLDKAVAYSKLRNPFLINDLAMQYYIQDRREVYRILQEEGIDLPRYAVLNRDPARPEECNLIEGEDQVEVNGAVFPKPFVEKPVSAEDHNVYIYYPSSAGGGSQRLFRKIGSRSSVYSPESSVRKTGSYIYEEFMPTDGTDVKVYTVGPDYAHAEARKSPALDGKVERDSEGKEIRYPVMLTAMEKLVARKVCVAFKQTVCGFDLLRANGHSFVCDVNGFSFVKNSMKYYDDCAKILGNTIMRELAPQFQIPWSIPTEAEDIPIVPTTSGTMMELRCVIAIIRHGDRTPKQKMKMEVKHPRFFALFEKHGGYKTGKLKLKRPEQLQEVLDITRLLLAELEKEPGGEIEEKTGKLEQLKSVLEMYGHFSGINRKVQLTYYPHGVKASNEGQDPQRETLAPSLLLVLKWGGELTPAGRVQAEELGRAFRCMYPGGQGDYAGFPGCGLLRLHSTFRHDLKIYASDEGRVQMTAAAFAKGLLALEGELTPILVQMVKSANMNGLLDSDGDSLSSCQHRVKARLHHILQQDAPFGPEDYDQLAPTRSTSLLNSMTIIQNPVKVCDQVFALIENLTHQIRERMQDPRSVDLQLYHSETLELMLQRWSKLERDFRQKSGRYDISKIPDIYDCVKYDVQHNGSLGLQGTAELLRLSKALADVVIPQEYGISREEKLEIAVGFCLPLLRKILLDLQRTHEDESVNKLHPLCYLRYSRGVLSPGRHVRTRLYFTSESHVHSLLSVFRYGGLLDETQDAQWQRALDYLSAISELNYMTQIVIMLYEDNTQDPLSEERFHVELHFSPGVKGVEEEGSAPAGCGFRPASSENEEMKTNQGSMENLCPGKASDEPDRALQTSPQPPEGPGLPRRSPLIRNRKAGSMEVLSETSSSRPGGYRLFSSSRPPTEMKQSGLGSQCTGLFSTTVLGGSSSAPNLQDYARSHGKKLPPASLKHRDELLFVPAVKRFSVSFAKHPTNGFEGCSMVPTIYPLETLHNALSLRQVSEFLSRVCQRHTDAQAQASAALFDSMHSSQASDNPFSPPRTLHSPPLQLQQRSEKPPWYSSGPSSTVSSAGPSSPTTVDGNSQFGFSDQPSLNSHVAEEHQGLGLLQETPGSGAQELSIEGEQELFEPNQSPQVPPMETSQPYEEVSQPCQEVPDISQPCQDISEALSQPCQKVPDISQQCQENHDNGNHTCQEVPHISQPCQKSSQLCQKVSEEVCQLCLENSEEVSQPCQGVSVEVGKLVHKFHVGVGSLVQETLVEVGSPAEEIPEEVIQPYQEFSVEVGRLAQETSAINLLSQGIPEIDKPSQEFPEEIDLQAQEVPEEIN
# Method in brief: (§1)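 Jurkat crude lysate prepared with a Dounce homogeniser was treated at eight concentrations spanning 0.1 to 10 mM, 10 min at room temperature then 3 min at 37 °C. Solubilisation with 0.8% NP40 and benzonase and ultracentrifugation preceded TMT labelling of the supernatant for LC-MS/MS. Fold change against the detergent-processed vehicle was determined per replicate from vsn-normalised intensities, across three independent experiments.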
# [2] = molecular target: T2, C9J494 and related entries (UniProt Q9H000)
# T2 sequence (whole entry): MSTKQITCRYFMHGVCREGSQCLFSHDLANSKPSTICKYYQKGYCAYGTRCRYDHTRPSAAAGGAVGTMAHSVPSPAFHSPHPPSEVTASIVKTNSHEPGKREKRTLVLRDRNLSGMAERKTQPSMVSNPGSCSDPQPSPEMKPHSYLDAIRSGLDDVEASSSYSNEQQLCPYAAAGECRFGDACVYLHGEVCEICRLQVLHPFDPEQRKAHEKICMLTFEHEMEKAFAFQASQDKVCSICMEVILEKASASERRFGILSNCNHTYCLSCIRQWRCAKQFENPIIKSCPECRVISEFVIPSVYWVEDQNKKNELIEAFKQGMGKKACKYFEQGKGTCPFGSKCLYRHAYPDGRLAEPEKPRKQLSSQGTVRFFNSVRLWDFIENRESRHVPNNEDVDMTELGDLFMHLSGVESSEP
# Method in brief: as §1
# [3] = molecular target: T3, C9JA69 and related entries (UniProt Q8WY36)
# T3 sequence (whole entry): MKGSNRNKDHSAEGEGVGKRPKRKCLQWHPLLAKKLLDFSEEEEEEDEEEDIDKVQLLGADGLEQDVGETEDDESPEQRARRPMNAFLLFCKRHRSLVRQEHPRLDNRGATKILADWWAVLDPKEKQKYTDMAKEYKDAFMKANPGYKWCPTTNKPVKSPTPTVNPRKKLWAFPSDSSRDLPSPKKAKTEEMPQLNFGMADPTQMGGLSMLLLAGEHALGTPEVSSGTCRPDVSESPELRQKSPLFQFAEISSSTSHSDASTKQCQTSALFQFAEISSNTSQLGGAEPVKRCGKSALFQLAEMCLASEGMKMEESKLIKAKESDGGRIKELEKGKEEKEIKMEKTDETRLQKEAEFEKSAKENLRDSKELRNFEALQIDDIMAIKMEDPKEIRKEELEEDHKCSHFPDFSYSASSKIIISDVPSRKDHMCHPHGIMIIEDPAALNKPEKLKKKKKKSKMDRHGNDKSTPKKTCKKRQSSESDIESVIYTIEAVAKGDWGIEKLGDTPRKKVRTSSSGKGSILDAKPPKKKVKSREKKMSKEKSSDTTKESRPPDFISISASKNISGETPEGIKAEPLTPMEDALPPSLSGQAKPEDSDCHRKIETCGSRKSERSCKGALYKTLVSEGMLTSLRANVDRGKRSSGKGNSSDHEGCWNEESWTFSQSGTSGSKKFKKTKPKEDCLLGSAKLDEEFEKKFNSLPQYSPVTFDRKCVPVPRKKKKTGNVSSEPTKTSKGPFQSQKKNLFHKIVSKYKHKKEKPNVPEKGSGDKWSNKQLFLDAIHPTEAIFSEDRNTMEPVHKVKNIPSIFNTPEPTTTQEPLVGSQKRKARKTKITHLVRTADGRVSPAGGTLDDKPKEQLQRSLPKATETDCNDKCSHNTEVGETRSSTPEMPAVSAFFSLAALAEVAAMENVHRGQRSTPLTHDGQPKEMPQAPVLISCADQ
# Method in brief: as §1
# [4] = molecular target: T4, C9JAX1 and related entries (UniProt Q16595)
# T4 sequence (whole entry): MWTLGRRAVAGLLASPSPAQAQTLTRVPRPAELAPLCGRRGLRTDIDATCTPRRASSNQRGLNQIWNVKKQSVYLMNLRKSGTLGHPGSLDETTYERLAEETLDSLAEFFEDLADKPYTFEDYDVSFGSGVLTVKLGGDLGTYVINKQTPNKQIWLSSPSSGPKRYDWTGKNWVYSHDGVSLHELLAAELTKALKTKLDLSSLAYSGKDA
# Method in brief: as §1
# [5] = molecular target: T5, C9JI46 and related entries (UniProt Q8N3X6); conditions: concentration: 1mM
# T5 sequence (whole entry): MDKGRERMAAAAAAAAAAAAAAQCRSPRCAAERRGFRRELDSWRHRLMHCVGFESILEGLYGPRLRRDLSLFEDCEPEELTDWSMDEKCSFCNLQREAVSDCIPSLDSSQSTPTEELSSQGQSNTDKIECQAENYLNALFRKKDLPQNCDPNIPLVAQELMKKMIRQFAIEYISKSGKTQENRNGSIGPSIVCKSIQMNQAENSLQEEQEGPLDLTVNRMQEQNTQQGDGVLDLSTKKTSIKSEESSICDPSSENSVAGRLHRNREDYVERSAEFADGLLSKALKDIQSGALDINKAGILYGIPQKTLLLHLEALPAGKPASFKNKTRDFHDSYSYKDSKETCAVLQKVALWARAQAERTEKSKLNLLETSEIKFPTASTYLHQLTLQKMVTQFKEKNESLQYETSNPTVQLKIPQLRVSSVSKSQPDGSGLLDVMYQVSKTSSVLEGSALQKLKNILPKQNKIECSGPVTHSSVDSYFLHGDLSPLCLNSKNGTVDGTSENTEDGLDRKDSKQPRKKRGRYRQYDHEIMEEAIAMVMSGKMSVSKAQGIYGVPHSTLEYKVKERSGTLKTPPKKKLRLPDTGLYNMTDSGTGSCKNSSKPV
# Method in brief: as §1
structure (smiles),measurement,setting,value
Nc1ncnc2c1ncn2[C@@H]1O[C@H](COP(=O)(O)OP(=O)(O)NP(=O)(O)O)[C@@H](O)[C@H]1O [adenylyl imidodiphosphate],NP40-soluble protein abundance,[1]; concentration: 6mM,0.997 ± 0.046
same,NP40-soluble protein abundance,[1]; concentration: 8mM,0.982 ± 0.02
same,NP40-soluble protein abundance,[1]; concentration: 10mM,1.01 ± 0.041
same,NP40-soluble protein abundance,[2]; concentration: 1mM,1.01 ± 0.03
same,NP40-soluble protein abundance,[2]; concentration: 2mM,1.02 ± 0.026
same,NP40-soluble protein abundance,[2]; concentration: 4mM,1.04 ± 0.017
same,NP40-soluble protein abundance,[2]; concentration: 6mM,1.03 ± 0.037
same,NP40-soluble protein abundance,[2]; concentration: 8mM,1.05 ± 0.011
same,NP40-soluble protein abundance,[2]; concentration: 10mM,1.051 ± 0.0097
same,NP40-soluble protein abundance,[3]; concentration: 1mM,1.03 ± 0.046
same,NP40-soluble protein abundance,[3]; concentration: 2mM,1.06 ± 0.02
same,NP40-soluble protein abundance,[3]; concentration: 4mM,1 ± 0.018
same,NP40-soluble protein abundance,[3]; concentration: 6mM,1.02 ± 0.013
same,NP40-soluble protein abundance,[3]; concentration: 8mM,0.993 ± 0.039
same,NP40-soluble protein abundance,[3]; concentration: 10mM,1.03 ± 0.044
same,NP40-soluble protein abundance,[4]; concentration: 1mM,0.937 ± 0.044
same,NP40-soluble protein abundance,[4]; concentration: 2mM,1.06 ± 0.079
same,NP40-soluble protein abundance,[4]; concentration: 4mM,0.9515 ± 0.0091
same,NP40-soluble protein abundance,[4]; concentration: 6mM,0.995 ± 0.06
same,NP40-soluble protein abundance,[4]; concentration: 8mM,0.989 ± 0.05
same,NP40-soluble protein abundance,[4]; concentration: 10mM,0.963 ± 0.03
same,NP40-soluble protein abundance,[5],0.985 ± 0.021

# Quoted at random: two entries already listed, in no set order.
structure (smiles),measurement,setting,value
Nc1ncnc2c1ncn2[C@@H]1O[C@H](COP(=O)(O)OP(=O)(O)NP(=O)(O)O)[C@@H](O)[C@H]1O [adenylyl imidodiphosphate],NP40-soluble protein abundance,[2]; concentration: 2mM,1.02 ± 0.026
same,NP40-soluble protein abundance,[4]; concentration: 2mM,1.06 ± 0.079

# From the supplement of paper PMC6411743
